In publication PMC7916783:
No constants are given. Whether binding was seen depends on the method and setting. Some entries that bind do so weakly or less than the wild type.

Amino acid sequences for entries named in this document (tags omitted).
UniProt Q01959: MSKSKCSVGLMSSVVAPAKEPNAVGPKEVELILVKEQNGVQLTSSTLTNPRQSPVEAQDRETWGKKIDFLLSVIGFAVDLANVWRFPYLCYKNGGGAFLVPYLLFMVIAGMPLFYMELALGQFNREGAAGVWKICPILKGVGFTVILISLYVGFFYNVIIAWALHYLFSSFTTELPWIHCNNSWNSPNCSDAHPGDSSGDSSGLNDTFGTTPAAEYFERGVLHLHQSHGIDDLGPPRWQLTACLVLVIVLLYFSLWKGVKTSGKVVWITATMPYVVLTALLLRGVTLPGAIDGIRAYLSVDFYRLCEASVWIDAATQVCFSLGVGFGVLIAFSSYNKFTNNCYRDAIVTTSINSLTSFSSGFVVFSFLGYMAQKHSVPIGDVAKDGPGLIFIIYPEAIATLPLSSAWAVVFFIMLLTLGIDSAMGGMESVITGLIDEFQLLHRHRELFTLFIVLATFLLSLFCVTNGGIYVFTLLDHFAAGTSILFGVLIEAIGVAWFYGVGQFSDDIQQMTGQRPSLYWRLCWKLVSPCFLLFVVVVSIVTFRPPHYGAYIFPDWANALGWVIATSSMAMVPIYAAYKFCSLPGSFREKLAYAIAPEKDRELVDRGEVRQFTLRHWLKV

Target: Dopamine transporter (DAT) (human) (UniProt Q01959)
Assay: SDS-PAGE and Western blot (oligomeric band); lysates (modified RIPA buffer, sonicated) of DAT-transfected Wt and PREPko HEK-293 cells, 12% SDS-PAGE, blot with anti-DAT MAB369 said to be specific for oligomeric DAT; cells also co-transfected with PREP, S554A-PREP or aSyn, or treated with KYP-2047, PMA or Gö-6983

Dopamine transporter (DAT) (from UniProt Q01959 1-620)
binding: binds
